Laboratory results from article PMC5045393.
No constants are given. Whether binding was seen depends on the method and setting. Binding seen in cells or lysates may run through a third protein. Some results given as binding are weak or reduced against the parent protein; the word gives no strength. Where a sequence is shown, tags or fusion partners need not be part of it. Values belong to the molecule of their own block, whether it stands above or below them.

By UniProt entry, the sequences of proteins in these tests, tags left out. Where a name states a change or a piece, a line headed by the entry shows the natural chain unless it says otherwise. Chains listed by the source or under a name are the forms on record and can include a tag or linker.
UniProt Q96CJ1: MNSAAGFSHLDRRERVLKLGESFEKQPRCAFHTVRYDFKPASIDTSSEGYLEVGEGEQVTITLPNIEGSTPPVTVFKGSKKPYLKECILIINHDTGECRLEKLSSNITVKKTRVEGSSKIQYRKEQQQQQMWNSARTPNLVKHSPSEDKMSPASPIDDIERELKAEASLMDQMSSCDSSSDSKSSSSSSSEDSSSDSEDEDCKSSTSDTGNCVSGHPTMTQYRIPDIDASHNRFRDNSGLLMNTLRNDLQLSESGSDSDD
myc-EAF2^K39-81-85-111R (quadruple substitution EAF2 mutant) (Q96CJ1, form named): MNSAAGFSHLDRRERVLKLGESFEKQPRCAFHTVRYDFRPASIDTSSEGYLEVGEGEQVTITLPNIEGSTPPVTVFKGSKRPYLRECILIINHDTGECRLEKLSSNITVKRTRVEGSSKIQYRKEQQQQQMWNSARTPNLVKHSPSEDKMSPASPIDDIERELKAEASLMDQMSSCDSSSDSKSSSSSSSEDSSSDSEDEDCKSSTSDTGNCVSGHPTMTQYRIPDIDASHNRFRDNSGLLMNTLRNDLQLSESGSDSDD

Legend:
HA-SIAH2 = target: T1, HA-SIAH2 (UniProt O43255); assay: co-IP; HEK 293 cells co-transfected for 30 h, then MG132 (10 μM) for 18 h; anti-HA precipitation of HA-SIAH2, Flag-EAF2 detected with anti-flag; the legend says denatured cell lysates
T1 sequence: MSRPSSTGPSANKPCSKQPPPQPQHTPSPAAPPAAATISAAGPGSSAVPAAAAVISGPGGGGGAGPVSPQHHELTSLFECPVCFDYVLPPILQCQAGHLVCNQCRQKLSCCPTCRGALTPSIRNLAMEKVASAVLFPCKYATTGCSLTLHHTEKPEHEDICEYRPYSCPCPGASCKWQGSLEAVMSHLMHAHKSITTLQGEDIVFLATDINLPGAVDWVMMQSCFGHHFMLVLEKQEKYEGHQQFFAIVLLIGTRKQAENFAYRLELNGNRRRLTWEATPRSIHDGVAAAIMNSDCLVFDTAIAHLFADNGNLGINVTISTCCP

GFP-ELL1 = target: T2, GFP-ELL1 (UniProt P55199); assay: co-IP; HEK 293 cells co-transfected for 36 h; anti-GFP precipitation of GFP-ELL1, immunoblot with anti-myc; NP-40 lysis buffer (20 mM Tris-HCl pH 7.5, 150 mM NaCl, 0.5% NP-40), wash with 250 mM NaCl, 4°C
T2 sequence: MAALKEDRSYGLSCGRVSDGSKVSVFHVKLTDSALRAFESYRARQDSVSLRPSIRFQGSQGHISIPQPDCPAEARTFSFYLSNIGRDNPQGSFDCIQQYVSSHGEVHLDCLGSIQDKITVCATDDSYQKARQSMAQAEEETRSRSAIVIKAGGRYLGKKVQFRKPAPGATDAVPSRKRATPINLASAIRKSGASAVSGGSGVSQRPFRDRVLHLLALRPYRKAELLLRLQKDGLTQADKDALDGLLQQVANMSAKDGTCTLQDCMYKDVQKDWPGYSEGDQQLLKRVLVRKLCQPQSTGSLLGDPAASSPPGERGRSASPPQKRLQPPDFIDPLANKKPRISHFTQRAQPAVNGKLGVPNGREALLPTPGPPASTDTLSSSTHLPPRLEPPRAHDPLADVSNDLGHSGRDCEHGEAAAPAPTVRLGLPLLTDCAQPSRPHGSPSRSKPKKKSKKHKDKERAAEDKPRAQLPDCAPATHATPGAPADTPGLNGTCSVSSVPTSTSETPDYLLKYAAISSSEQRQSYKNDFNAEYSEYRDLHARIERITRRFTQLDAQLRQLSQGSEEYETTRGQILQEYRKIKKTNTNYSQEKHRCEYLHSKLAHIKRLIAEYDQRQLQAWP

GFP-EAF2 = GFP-EAF2 (UniProt Q96CJ1); assay: co-IP; HEK 293 cells co-transfected with GFP-EAF2, HA-ubiquitin and HA-SIAH2 for 30 h, then MG132 (10 μM) for 18 h; anti-GFP precipitation of GFP-EAF2, HA-SIAH2 detected with anti-SIAH2; the legend says denatured cell lysates

Molecule: Flag-EAF2 (from UniProt Q96CJ1 1-260)
binding (HA-SIAH2): binds

Molecule: myc-EAF2 (wild-type ELL-associated factor 2) (from UniProt Q96CJ1 1-260)
binding (GFP-ELL1): binds

Second part, the molecule after the results:

binding (GFP-ELL1): binds
Molecule: myc-EAF2^K39-81-85-111R (quadruple substitution EAF2 mutant) (from UniProt Q96CJ1 1-260)

binding (GFP-EAF2): binds
B1: HA-SIAH2 (enzyme, UniProt O43255 1-324)
chain: T1 sequence
